Measurements reported in PubChem BioAssay AID504784 (Drosophila RNAi Screening Center, 2011)

Test: 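Genome-wide knock-down for genes giving too much or too little stored lipid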 (primary screen)
Cells: Drosophila Kc167 embryonic cells
Knock-down reagent: long dsRNA against Drosophila genes, about 250 ng dsRNA per well
Timing: 4 days
Treatment: cells fed 400 µM oleic acid bound to BSA
Read-out: 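Cells imaged and segmented; ratio of lipid droplet area to nuclear area, log-transformed, then normalised as a B-score over the screen; higher means more stored lipid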
Scale: droplet/nuclear area B-score: higher = more stored lipid (overstorage)
The screen tested about 17,000 reagents; below is an unselected part of those that have a named target and a result. 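Each column is one replicate's B-score; the combined score over replicates was not deposited, so single values may mislead.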 The numbers tell different reagents against one gene apart. Names joined by + are all predicted targets of the reagent. Further read-outs or replicates are left out here.

| gene | reagent no. | droplet/nuclear area B-score, replicate 1 |
| --- | --- | --- |
| eIF4E5 (eukaryotic translation initiation factor 4E5) | 1 | 0.328 |
| CG7829 | 1 | 0.0328 |
| Nmdar2 (NMDA receptor 2) | 1 | -0.066 |
| Nmdar2 (NMDA receptor 2) | 2 | 2.37 |
| Nmdar2 (NMDA receptor 2) | 3 | 0.393 |
| Mcm5 (Minichromosome maintenance 5) | 1 | -0.295 |
| vir-1 (virus-induced RNA 1) | 1 | 0.902 |
| vir-1 (virus-induced RNA 1) | 2 | 0.164 |
| Sec10 (Secretory 10) | 1 | 0.224 |
| CG4294 | 1 | 1.47 |
| CG4328 | 1 | -2.79 |
| CG4328 | 2 | 0.735 |
| loqs (loquacious) | 1 | -1.3 |
| sstn (stepping stone) | 1 | -0.213 |
| fz3 (frizzled 3) | 1 | 1.19 |
| cola + swif | 1 | 0.00267 |
| cola + swif | 2 | -1.07 |
| CG13744 | 1 | 0.53 |
| eIF2D (eukaryotic translation initiation factor 2D) | 1 | -1.63 |
| CG13144 | 1 | -1.4 |
| Idgf4 (Imaginal disc growth factor 4) | 1 | -0.0838 |
| Spf30 (Splicing factor 30) | 1 | -1.67 |
| CG43672 | 1 | -0.184 |
| CG43672 | 2 | 0.275 |
| CG8042 | 1 | -1.1 |
| CG7201 | 1 | 0.0997 |
| loj (logjam) | 1 | -2.17 |
| Inx7 (Innexin 7) | 1 | -0.879 |
| Elba3 (Early boundary activity 3) | 1 | -0.807 |
| CG17026 | 1 | -1.02 |
| CG17650 | 1 | -0.73 |
| en (engrailed) | 1 | 0.426 |
| Ocho | 1 | -0.0171 |
| CG5065 | 1 | -0.316 |

Sorted by “droplet/nuclear area B-score, replicate 1” (ascending): 2 of the entries above.
| gene | reagent no. | droplet/nuclear area B-score, replicate 1 |
| --- | --- | --- |
| CG8042 | 1 | -1.1 |
| CG43672 | 2 | 0.275 |
